Assay results as given in US7557113B2, “Substituted pyrrolo[3,2-d]pyrimidine derivatives” (Teijin Pharma Limited, priority 2003, dated 2009).
Some of these results come from one statement about several compounds together.

Chains of the proteins cited; added tags and fusions are not shown. Lines headed by an entry give the natural chain unless they say otherwise; changes in a name come on top.
UniProt P49841: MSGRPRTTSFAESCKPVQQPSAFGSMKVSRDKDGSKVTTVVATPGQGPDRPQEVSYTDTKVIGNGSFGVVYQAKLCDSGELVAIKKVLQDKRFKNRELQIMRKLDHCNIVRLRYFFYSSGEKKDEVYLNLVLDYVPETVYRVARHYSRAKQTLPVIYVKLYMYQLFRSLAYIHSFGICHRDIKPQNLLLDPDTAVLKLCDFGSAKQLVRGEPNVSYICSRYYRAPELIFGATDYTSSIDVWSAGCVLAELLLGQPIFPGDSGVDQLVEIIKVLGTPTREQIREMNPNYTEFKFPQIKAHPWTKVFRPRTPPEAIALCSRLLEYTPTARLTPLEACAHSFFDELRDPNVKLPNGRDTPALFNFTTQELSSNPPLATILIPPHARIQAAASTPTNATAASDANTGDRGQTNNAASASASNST

target: recombinant human GSK-3β (Homo sapiens, UniProt P49841); assay: Determination of Inhibition of GSK-3 Activity (phospho-glycogen synthase peptide-2 phosphorylation, [γ-33P]ATP, scintillation counting); format: biochemical; conditions: group stated as IC50<100 nM; read-out: GSK-3 inhibitor activity values (IC50 values)
Description: The reaction was initiated by adding 25 μL of phospho-glycogen synthase peptide-2 substrate solution [containing 6 μM phospho-glycogen synthase peptide-2, 20 μM ATP, 16 mM MOPS buffer (pH 7.0), 0.2 mM EDTA, 20 mM magnesium acetate, 0.1 μ Ci[γ-^33P]ATP (relative activity: approximately 110 TBq/mmol)] to 5 μL of each test compound using 5% dimethylsulfoxide as a solvent, and further adding 20 μL of GSK-3β enzyme solution [containing 10 mU recombinant human GSK-3β, 20 mM MOPS buffer (pH 7.0), 1 mM EDTA, 0.1% polyoxyethylene lauryl ether(23 Lauryl Ether; Brij 35), 5% glycerol, and 0.1% β-mercaptoethanol. After 20 minutes at room temperature, the reaction was terminated by the addition of the equivalent amount of 200 mM phosphoric acid solution. 90 μL of the reaction product was spotted onto a multiscreen PH plate (manufactured by Millipore) and washed with 100 mM phosphoric acid solution. The plate was dried, and 30 μL of MicroScint-O (manufactured by Packard BioScience) was added thereto. To evaluate inhibitory activity, cpm was counted using a scintillation counter. Here, Phospho GS Peptide 2 is an amino acid peptide having the following sequence: […]P)-Glu-Asp-Glu-Glu-Glu.

Row | Compound | IC50
1 | O=C(NCCn1c(C2CC2)c(-c2cccnc2)c2nc[nH]c(=O)c21)C1CCCCC1 [Compound 297] | < 100 nM
2 | CC(C)(C)OC(=O)NCCn1c(-c2sccc2Cl)c(-c2cn[nH]c2)c2nc[nH]c(=O)c21 [Compound 1014] | < 100 nM
3 | Cn1cc(-c2c(-c3sccc3Cl)n(CCNC(=O)NCc3cccc(OC(F)(F)F)c3)c3c(=O)[nH]cnc23)cn1 [Compound 2053] | < 100 nM
4 | O=C(NCCn1c(-c2sccc2Cl)c(-c2cccnc2)c2nc[nH]c(=O)c21)C1CCN(C(=O)C2CCC2)CC1 [Compound 1721] | < 100 nM
5 | O=C(CC1CCCCCC1)NCCn1c(C2CC2)c(-c2cccnc2)c2nc[nH]c(=O)c21 [Compound 1423] | < 100 nM
6 | CCCNC(=O)NCCn1c(C2CC2)c(-c2cccnc2)c2nc[nH]c(=O)c21 [Compound 760] | < 100 nM
7 | O=C(NCCn1c(C2CC2)c(-c2cccnc2)c2nc[nH]c(=O)c21)NCc1cccc(C(F)(F)F)c1F [Compound 2103] | < 100 nM
8 | O=C(NCCn1c(C2CC2)c(-c2cccnc2)c2nc[nH]c(=O)c21)C1CCCC1 [Compound 280] | < 100 nM
9 | Cn1cc(-c2c(-c3sccc3Cl)n(CCNC(=O)NCc3ccc(C(F)(F)F)cc3)c3c(=O)[nH]cnc23)cn1 [Compound 2049] | < 100 nM
10 | O=C(NCCn1c(C2CC2)c(-c2cccnc2)c2nc[nH]c(=O)c21)NCc1ccc(-c2ccccc2)cc1 [Compound 2107] | < 100 nM
11 | Cn1cc(-c2c(-c3sccc3Cl)n(CCNC(=O)C3CC3)c3c(=O)[nH]cnc23)cn1 [Compound 1206] | < 100 nM
12 | CC1CCC(C(=O)NCCn2c(-c3sccc3Cl)c(-c3cccnc3)c3nc[nH]c(=O)c32)CC1 (centres unmarked) [Compound 668] | < 100 nM
13 | Cn1cc(-c2c(-c3sccc3Cl)n(CCNC(=O)NCc3ccc(F)cc3)c3c(=O)[nH]cnc23)cn1 [Compound 2011] | < 100 nM
14 | O=C(CCCn1c(C2CC2)c(-c2cccnc2)c2nc[nH]c(=O)c21)Nc1ccc(C(F)(F)F)cc1 [Compound 2212] | < 100 nM
15 | O=C(CCCn1c(C2CC2)c(-c2cccnc2)c2nc[nH]c(=O)c21)NCc1ccc(C(F)(F)F)cc1 [Compound 2311] | < 100 nM
16 | Cn1cc(-c2c(C3CC3)n(CCNC(=O)NCc3ccc(OC(F)(F)F)cc3)c3c(=O)[nH]cnc23)cn1 [Compound 2054] | < 100 nM
17 | Cn1cc(-c2c(-c3sccc3Cl)n(CCNC(=O)C3CCC(C(F)(F)F)CC3)c3c(=O)[nH]cnc23)cn1 (centres unmarked) [Compound 1654] | < 100 nM
18 | CC(C)(C)CC(=O)NCCn1c(-c2sccc2Cl)c(-c2ccoc2)c2nc[nH]c(=O)c21 [Compound 627] | < 100 nM
19 | CCC1CCC(C(=O)NCCn2c(C3CC3)c(-c3cccnc3)c3nc[nH]c(=O)c32)CC1 (centres unmarked) [Compound 1549] | < 100 nM
20 | O=C(NCCn1c(C2CC2)c(-c2cccnc2)c2nc[nH]c(=O)c21)C1CCC(F)(F)CC1 [Compound 1589] | < 100 nM
21 | O=C(NCCn1c(C2CC2)c(-c2cccnc2)c2nc[nH]c(=O)c21)Nc1ccc(C(F)(F)F)cc1 [Compound 2007] | < 100 nM
22 | CC(C)CC(=O)NCCn1c(-c2sccc2Cl)c(-c2cnn(C)c2)c2nc[nH]c(=O)c21 [Compound 1250] | < 100 nM

Row | Compound | IC50
23 | Cn1cc(-c2c(-c3sccc3Cl)n(CCNC(=O)C3CCC3)c3c(=O)[nH]cnc23)cn1 [Compound 1430] | < 100 nM
24 | Cn1cc(-c2c(-c3sccc3Cl)n(CCNC(=O)NCC3CCCCC3)c3c(=O)[nH]cnc23)cn1 [Compound 2015] | < 100 nM
25 | O=C(NCCn1c(-c2sccc2Cl)c(-c2cn[nH]c2)c2nc[nH]c(=O)c21)C1CCCC1 [Compound 1216] | < 100 nM
26 | Cc1cscc1-c1c(-c2cnn(C)c2)c2nc[nH]c(=O)c2n1CCNC(=O)CC(C)(C)C [Compound 1296] | < 100 nM
27 | CC(C)(C)CC(=O)NCCn1c(C2CC2)c(-c2ccsc2)c2nc[nH]c(=O)c21 [Compound 617] | < 100 nM
28 | Cn1cc(-c2c(C3CC3)n(CCNC(=O)CC(C)(C)C)c3c(=O)[nH]cnc23)cn1 [Compound 1271] | < 100 nM
29 | CC1CCC(CC(=O)NCCn2c(C3CC3)c(-c3cccnc3)c3nc[nH]c(=O)c32)CC1 (centres unmarked) [Compound 1660] | < 100 nM
30 | O=C(CC1CCCCC1)NCCn1c(C2CC2)c(-c2cccnc2)c2nc[nH]c(=O)c21 [Compound 1405] | < 100 nM
31 | O=C(NCCn1c(C2CC2)c(-c2cccnc2)c2nc[nH]c(=O)c21)Nc1ccccc1 [Compound 785] | < 100 nM
32 | Cn1cc(-c2c(-c3sccc3Cl)n(CCNC(=O)CC3CCCCC3)c3c(=O)[nH]cnc23)cn1 [Compound 1415] | < 100 nM
33 | CCC1CCC(C(=O)NCCn2c(-c3sccc3Cl)c(-c3cnn(C)c3)c3nc[nH]c(=O)c32)CC1 (centres unmarked) [Compound 1553] | < 100 nM
34 | Cn1cc(-c2c(-c3sccc3Cl)n(CCNC(=O)CC3CC3)c3c(=O)[nH]cnc23)cn1 [Compound 1374] | < 100 nM
35 | O=C(NCCn1c(C2CC2)c(-c2cccnc2)c2nc[nH]c(=O)c21)NCc1ccc(Cl)c(Cl)c1 [Compound 2040] | < 100 nM
36 | CCCCC(=O)NCCn1c(-c2sccc2Cl)c(-c2cnn(C)c2)c2nc[nH]c(=O)c21 [Compound 1257] | < 100 nM
37 | Cc1ccsc1-c1c(-c2cnn(C)c2)c2nc[nH]c(=O)c2n1CCNC(=O)CC(C)(C)C [Compound 1286] | < 100 nM
38 | Cn1cc(-c2c(-c3sccc3Cl)n(CCNC(=O)C3CCCCCC3)c3c(=O)[nH]cnc23)cn1 [Compound 1237] | < 100 nM
39 | Cn1cc(-c2c(-c3sccc3Cl)n(CCNC(=O)C3CCN(C(=O)OC(C)(C)C)CC3)c3c(=O)[nH]cnc23)cn1 [Compound 1693] | < 100 nM
40 | CC(C)(C)CC(=O)NCCn1c(C2CC2)c(-c2cccnc2)c2nc[nH]c(=O)c21 [Compound 615] | < 100 nM
41 | O=C(CCCn1c(C2CC2)c(-c2cccnc2)c2nc[nH]c(=O)c21)Nc1ccc(OC(F)(F)F)cc1 [Compound 2224] | < 100 nM
42 | Cn1cc(-c2c(-c3sccc3Cl)n(CCNC(=O)NCc3ccc(F)c(F)c3)c3c(=O)[nH]cnc23)cn1 [Compound 2036] | < 100 nM
43 | CC1CCC(C(=O)NCCn2c(-c3sccc3Cl)c(-c3cnn(C)c3)c3nc[nH]c(=O)c32)CC1 (centres unmarked) [Compound 1445] | < 100 nM
44 | CC1CCC(CC(=O)NCCn2c(-c3sccc3Cl)c(-c3cnn(C)c3)c3nc[nH]c(=O)c32)CC1 (centres unmarked) [Compound 1661] | < 100 nM

Row | Compound | IC50
45 | C#CCCC(=O)NCCn1c(-c2sccc2Cl)c(-c2cnn(C)c2)c2nc[nH]c(=O)c21 [Compound 1514] | < 100 nM
46 | CC(C)(C)CC(=O)NCCn1c(C2CC2)c(-c2cn[nH]c2)c2nc[nH]c(=O)c21 [Compound 618] | < 100 nM
47 | O=C(NCCn1c(-c2sccc2Cl)c(-c2cccnc2)c2nc[nH]c(=O)c21)C1CCCC1 [Compound 287] | < 100 nM
48 | Cn1cc(-c2c(-c3sccc3Cl)n(CCNC(=O)C3CCOCC3)c3c(=O)[nH]cnc23)cn1 [Compound 1679] | < 100 nM
49 | O=C(NCCn1c(C2CC2)c(-c2cccnc2)c2nc[nH]c(=O)c21)NCc1ccc(C(F)(F)F)cc1F [Compound 2105] | < 100 nM
50 | O=C(NCCn1c(C2CC2)c(-c2cccnc2)c2nc[nH]c(=O)c21)Nc1ccc(OC(F)(F)F)cc1 [Compound 2008] | < 100 nM
51 | C=C1CCC(C(=O)NCCn2c(-c3sccc3Cl)c(-c3cnn(C)c3)c3nc[nH]c(=O)c32)CC1 [Compound 1566] | < 100 nM
52 | O=C(NCCn1c(C2CC2)c(-c2cccnc2)c2nc[nH]c(=O)c21)NCc1ccc(C(F)(F)F)cc1 [Compound 2046] | < 100 nM
53 | Cn1cc(-c2c(-c3sccc3Cl)n(CCNC(=O)CC3CCCC3)c3c(=O)[nH]cnc23)cn1 [Compound 1399] | < 100 nM
54 | O=C(NCCn1c(C2CC2)c(-c2cccnc2)c2nc[nH]c(=O)c21)C1CCC(C(F)(F)F)CC1 (centres unmarked) [Compound 1647] | < 100 nM
55 | O=C(NCCn1c(C2CC2)c(-c2cccnc2)c2nc[nH]c(=O)c21)NCc1ccccc1C(F)(F)F [Compound 2042] | < 100 nM
56 | Cn1cc(-c2c(-c3sccc3Cl)n(CCNC(=O)C3CCCC3)c3c(=O)[nH]cnc23)cn1 [Compound 1217] | < 100 nM
57 | Cn1cc(-c2c(-c3sccc3Cl)n(CCNc3ccc(C#N)cn3)c3c(=O)[nH]cnc23)cn1 [Compound 1183] | < 100 nM
58 | Cn1cc(-c2c(-c3sccc3Cl)n(CCNC(=O)C3CCC(F)(F)CC3)c3c(=O)[nH]cnc23)cn1 [Compound 1600] | < 100 nM
59 | CC(C)(C)CC(=O)N1CCC(C(=O)NCCn2c(-c3sccc3Cl)c(-c3cccnc3)c3nc[nH]c(=O)c32)CC1 [Compound 1715] | < 100 nM
60 | CC(C)CCC(=O)NCCn1c(-c2sccc2Cl)c(-c2cnn(C)c2)c2nc[nH]c(=O)c21 [Compound 1494] | < 100 nM
61 | O=C(NCCn1c(-c2sccc2Cl)c(-c2cccnc2)c2nc[nH]c(=O)c21)NCc1ccc(F)c(F)c1 [Compound 2034] | < 100 nM
62 | Cn1cc(-c2c(-c3sccc3Cl)n(CCNC(=O)C3CCCCC3)c3c(=O)[nH]cnc23)cn1 [Compound 1228] | < 100 nM
63 | O=C(CC1CCCC1)NCCn1c(C2CC2)c(-c2cccnc2)c2nc[nH]c(=O)c21 [Compound 641] | < 100 nM
64 | Cn1cc(-c2c(-c3sccc3Cl)n(CCNC(=O)CC3CCCCCC3)c3c(=O)[nH]cnc23)cn1 [Compound 1427] | < 100 nM
65 | Cn1cc(-c2c(-c3sccc3Cl)n(CCNC(=O)CCc3ccc(F)cc3)c3c(=O)[nH]cnc23)cn1 [Compound 1243] | < 100 nM
